No constants are given. Whether binding was seen depends on the method and setting. In cells and extracts the contact can be indirect. Some binding calls cover weakened binding; strength is not graded here.
What was measured:
[1] = molecular target: G9a (mouse (endogenous in primary keratinocytes)) (UniProt Q9Z148); assay: co-IP; nuclear lysates of primary mouse keratinocytes, Nuclear Complex Co-IP Kit (Active Motif); precipitated with anti-N-WASP or anti-G9a and Protein A agarose; IgG as control; blots for G9a, GLP, N-WASP
[2] = molecular target: neural Wiskott-Aldrich syndrome protein (N-WASP) (mouse (endogenous in primary keratinocytes)) (UniProt Q91YD9); assay: as above

The chains behind the UniProt entries cited, without tags or fusion partners.
UniProt Q9Z148: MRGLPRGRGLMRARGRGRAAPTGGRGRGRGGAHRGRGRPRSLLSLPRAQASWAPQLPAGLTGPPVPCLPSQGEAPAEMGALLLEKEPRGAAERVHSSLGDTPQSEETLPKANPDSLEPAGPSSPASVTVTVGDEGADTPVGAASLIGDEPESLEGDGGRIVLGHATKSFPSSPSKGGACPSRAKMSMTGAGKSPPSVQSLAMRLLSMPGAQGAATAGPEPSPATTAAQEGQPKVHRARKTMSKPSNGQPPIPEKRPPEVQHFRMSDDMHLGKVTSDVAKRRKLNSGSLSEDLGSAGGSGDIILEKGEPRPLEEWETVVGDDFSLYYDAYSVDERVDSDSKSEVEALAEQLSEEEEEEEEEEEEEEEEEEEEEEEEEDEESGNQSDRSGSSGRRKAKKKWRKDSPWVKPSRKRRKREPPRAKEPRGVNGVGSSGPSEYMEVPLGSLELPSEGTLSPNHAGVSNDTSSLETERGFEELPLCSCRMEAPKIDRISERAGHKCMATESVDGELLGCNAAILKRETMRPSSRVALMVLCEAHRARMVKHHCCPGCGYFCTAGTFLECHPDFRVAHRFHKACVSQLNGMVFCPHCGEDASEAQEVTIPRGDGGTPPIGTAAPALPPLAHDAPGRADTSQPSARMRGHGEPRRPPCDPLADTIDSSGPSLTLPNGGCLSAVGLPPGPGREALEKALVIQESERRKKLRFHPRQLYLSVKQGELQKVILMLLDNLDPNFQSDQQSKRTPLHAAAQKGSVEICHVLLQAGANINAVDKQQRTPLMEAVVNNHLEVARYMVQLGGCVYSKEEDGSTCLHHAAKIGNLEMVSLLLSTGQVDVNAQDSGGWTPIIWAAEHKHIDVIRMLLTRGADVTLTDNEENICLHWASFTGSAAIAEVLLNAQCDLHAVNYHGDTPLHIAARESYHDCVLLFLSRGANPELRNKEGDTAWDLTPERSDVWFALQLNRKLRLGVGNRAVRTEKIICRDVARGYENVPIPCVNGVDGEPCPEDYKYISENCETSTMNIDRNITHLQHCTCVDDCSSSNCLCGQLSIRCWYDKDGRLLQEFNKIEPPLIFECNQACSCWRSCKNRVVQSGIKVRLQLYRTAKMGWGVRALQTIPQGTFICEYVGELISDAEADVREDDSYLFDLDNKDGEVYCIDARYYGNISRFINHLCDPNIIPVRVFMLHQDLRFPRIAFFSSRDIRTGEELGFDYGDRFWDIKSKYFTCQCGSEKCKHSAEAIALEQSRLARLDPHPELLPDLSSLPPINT
UniProt Q91YD9: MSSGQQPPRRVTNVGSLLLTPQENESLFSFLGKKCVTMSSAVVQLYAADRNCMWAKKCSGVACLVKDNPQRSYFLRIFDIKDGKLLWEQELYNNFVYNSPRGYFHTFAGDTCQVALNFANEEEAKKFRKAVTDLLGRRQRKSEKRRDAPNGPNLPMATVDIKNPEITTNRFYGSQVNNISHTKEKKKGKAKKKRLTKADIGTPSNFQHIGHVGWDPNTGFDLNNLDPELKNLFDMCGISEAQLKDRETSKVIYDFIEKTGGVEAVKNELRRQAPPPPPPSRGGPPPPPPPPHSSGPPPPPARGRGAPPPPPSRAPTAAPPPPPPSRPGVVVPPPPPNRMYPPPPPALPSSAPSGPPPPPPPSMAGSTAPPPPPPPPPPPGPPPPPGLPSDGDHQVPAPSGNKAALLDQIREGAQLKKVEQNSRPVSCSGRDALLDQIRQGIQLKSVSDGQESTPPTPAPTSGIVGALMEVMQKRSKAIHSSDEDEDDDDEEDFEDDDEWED

Substance	binding [1]	binding [2]
neural Wiskott-Aldrich syndrome protein (N-WASP) (from UniProt Q91YD9 1-501)	binds	–
G9a (from UniProt Q9Z148 1-1263) (enzyme)	–	binds

— PMC5897363
